Source: PubChem BioAssay AID602196 (INSERM, 2012)
Aim: 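Modifiers of cisplatin sensitivity in A549 cells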. Cell system: human A549 lung cancer cells. Reagents: siRNA pair against human genes. Duration: 48 h transfection before cisplatin; time from cisplatin to read-out not stated. Treatment: cisplatin at a dose killing half of control-siRNA cells; exact dose and duration not given. Read-out: 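Cisplatin cell death as a shift from the 50% death seen with control siRNA; siRNAs toxic or growth-blocking alone scored 0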. Direction: two-siRNA summed score (-2 to +2): higher = both siRNAs protect from cisplatin killing; -2 means both sensitise; mean protection from cisplatin (shift in death) and protection from cisplatin (shift in death), siRNA C and protection from cisplatin (shift in death), siRNA D: higher = protection from cisplatin killing. Call rule: 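siRNAs harmful alone (LDH or WST-1) get 0; others get +1 for less and -1 for more cisplatin killing; genes are active when the two siRNAs give the same sign, summing to ±2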. Calls: active = both siRNAs shift cisplatin killing the same way; inactive = no consistent shift, or siRNA harmful alone.
The whole screen tested about 23,000 reagents; this is an unselected part. In the full data, 455 (2%) are marked active. 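Active includes both protection and sensitisation; some change values fall well beyond the stated -50 to +50 range.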 Entries without a mark were called inactive. Reagents against one gene are numbered here. Not stated in the record: the amount of reagent.

Gene	reagent	two-siRNA summed score (-2 to +2)	mean protection from cisplatin (shift in death) (%)	protection from cisplatin (shift in death), siRNA C (%)	protection from cisplatin (shift in death), siRNA D (%)
ARL10	1	0	18.4	11.6	25.2
OR6C75	1	0	14.2	4.8	23.5
DRC7	1	0	2	2.2	1.8
H2AC12	1	0	4.2	1.2	7.2
SLC38A7	1	-1	-14.1	-0.7	-27.5
STRN4	1	0	-2.8	-11.2	5.5
LOC131405	1	0	6.9	14.8	-1
FDXR	1	0	11.3	18.8	3.8
TRIO	1	0	-7.6	-8	-7.2
RGSL1	1	1	4.1	14.1	-5.9
RGSL1	2	1	9.9	4.9	14.8
NOS3	1	0	-4.2	3.6	-12.1
DKFZp761O2018	1	0	6	6.5	5.5
BPIFA4P	1	0	7.2	25.1	-10.8
GPALPP1	1	-1	-12.8	-13.8	-11.9
IL9R	1	0	21.5	25.1	18
LOC401823	1	1	1	12.6	-10.7
PCDH19	1	1	11	17	5
PRM1	1	0	13.8	17.7	9.9
AP3M2	1	0	10.4	11.2	9.6
IL36G	1	0	10.9	15.2	6.5
LOC441414	1	0	7.3	9	5.6
CIP2A	1	0	-21.9	0.9	-44.6
OR4F29	1	0	-3.5	-9.9	2.9
TERT	1	0	-4.2	-14.4	6.1
USP39	1	0	1.3	0.8	1.7
RPF2	1	0	3.5	7.9	-0.8
ZC3H8	1	0	3	6.8	-0.9
ABCB6	1	0	2.8	4.1	1.4
LOC440679	1	1	13.9	10.5	17.4
EPB41L4A-AS1	1	0	-0.3	-5.8	5.2
SHMT2	1	-1	-16	-27.6	-4.5
NTN3	1	1	28.7	21.4	36
INVS	1	1	9.6	15.1	4.2
WRN	1	0	-8.1	-18.7	2.4
ARVCF	1	-1	-10.2	-13.5	-6.9
LPP	1	1	20.5	25.5	15.5
CCL17	1	-1	-14.6	-7.1	-22
RTN4R	1	1	11.6	29.2	-6
LOC442466	1	0	25.1	44.4	5.8
LOC346910	1	0	3.9	-1.4	9.2
CRIPT	1	1	8.5	19.7	-2.7
LOC440307	1	0	5	10.5	-0.6
TBX2	1	0	-7.8	-14.9	-0.7
LOC441198	1	0	14.4	11.4	17.4
LIPA	1	0	0.2	0.9	-0.6
LOC441790	1	1	12.1	13.4	10.8
DNAJB8	1	-1	-9.1	-21.2	2.9
NOS2	1	1	4.2	19.7	-11.3
C17orf58	1	0	8	13.5	2.5
SH3BP5	1	0	15	34.5	-4.6
SH3BP5	2	0	15.2	19.7	10.6
LOC390754	1	0	26.8	40.3	13.3
SUDS3P1	1	0	6.7	-6.9	20.2
HACL2	1	0	2.6	-21.6	26.8
SOST	1	0	-2.4	-1.3	-3.5
ADGRB2	1	0	-7.4	-17.3	2.5
